At least one compound was matched to its structure with a doubt left.
Test system: MDA-231, MCF7, MDA-468, BT474 cells
Test: Combination of compound 1 and CDK inhibitors, cell proliferation and colony assays
Format: cell-based, human
Conditions: Palbociclib 0.1 μM

SMILES: CC(=O)c1c(C)c2cnc(Nc3ccc(N4CCNCC4)cn3)nc2n(C2CCCC2)c1=O [Palbociclib, reference compound]
- growth inhibition of BT474 cells: sensitive
